Measured values reported in the supplement of paper PMC3334620.
Over roughly 33,000 sequences, “E-score (-0.5 to 0.5)” has its median near -0.0014; the highest 2% begin near 0.25. The list shows a part of the results.

Molecular target: T1, Cad1 (UniProt P24813)
T1 sequence: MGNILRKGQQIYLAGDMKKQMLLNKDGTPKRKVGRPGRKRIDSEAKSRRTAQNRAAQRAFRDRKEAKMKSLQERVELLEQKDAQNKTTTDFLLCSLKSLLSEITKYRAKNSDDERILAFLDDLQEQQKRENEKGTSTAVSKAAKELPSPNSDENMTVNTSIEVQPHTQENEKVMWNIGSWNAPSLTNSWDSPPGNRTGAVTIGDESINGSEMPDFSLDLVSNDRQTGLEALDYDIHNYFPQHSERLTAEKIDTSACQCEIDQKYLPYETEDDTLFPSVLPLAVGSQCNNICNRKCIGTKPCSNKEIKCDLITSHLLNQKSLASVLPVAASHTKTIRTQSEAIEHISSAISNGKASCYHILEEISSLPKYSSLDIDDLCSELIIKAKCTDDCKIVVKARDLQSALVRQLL
Experiment: PBM E-score (8-mer binding enrichment) (E-score (-0.5 to 0.5)); higher = stronger / more preferred TF binding
Conditions: protein concentration: 100 nM; construct: GST-full length
In short: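 Universal all-10-mer Agilent arrays, fresh or stripped once, were converted to double-stranded form by primer extension. GST-tagged yeast transcription factors from PURExpress in vitro transcription/translation, full-length or DNA-binding domain only, were applied at about 100-200 nM and detected with fluorescent anti-GST. After masliner normalisation, the Universal PBM Analysis Suite scored each ungapped eight-base word together with its reverse complement by E-score.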

Going from AGGTACGG to ACAGGCGG, the “PBM E-score” value rises from -0.168 to 0.0639.

Going from CAGAGTAG to ATGACATG, the “PBM E-score” value falls from 0.0425 to 0.0289.

Compared with CACTTGTA, GCAGTGCA is higher in “PBM E-score” value: 0.0274 for the first, 0.0751 for the second.

Compared with ACCACGGA, TAACTGAA is higher in “PBM E-score” value: -0.141 for the first, -0.0483 for the second.

First: TTAGAAAA
Second: ACTTTTCG
The “PBM E-score” value of the first is higher: 0.156 for the first, 0.124 for the second.

Compared with CTGAGCTA, ATTAACAG is higher in “PBM E-score” value: -0.208 for the first, 0.0513 for the second.

First: ATATTGTG
Second: CAGTTCAC
The “PBM E-score” value of the first is lower: -0.0395 for the first, -0.00384 for the second.

Compared with AGAGGCAC, CACACAAA is higher in “PBM E-score” value: -0.176 for the first, 0.104 for the second.

Compared with GTGCGCGA, ATGCCACG is lower in “PBM E-score” value: -0.0729 for the first, -0.0934 for the second.

Going from CAGTATCA to GTCAGCTA, the “PBM E-score” value rises from 0.0166 to 0.0482.

Going from GTATGGCA to ACAGCTGC, the “PBM E-score” value falls from 0.0746 to 0.067.

First: ATGATTGA
Second: ATAACCTG
The “PBM E-score” value of the first is higher: 0.0737 for the first, -0.118 for the second.

First: CTGACCTA
Second: GGAGGGCC
The “PBM E-score” value of the first is higher: -0.0577 for the first, -0.32 for the second.

Compared with ACCACACA, ATCTGCCA is lower in “PBM E-score” value: 0.0748 for the first, -0.0722 for the second.

First: CTCGCTTA
Second: CCACGCAC
The “PBM E-score” value of the first is higher: 0.218 for the first, 0.0497 for the second.

Compared with ATATGGTC, AAATTGTT is lower in “PBM E-score” value: 0.108 for the first, 0.0687 for the second.

Going from ATAACTTA to CATTAACA, the “PBM E-score” value rises from 0.0937 to 0.16.

First: AGTGGAAT
Second: CGACTGAG
The “PBM E-score” value of the first is higher: -0.0609 for the first, -0.17 for the second.

Compared with CCCCGCCG, GAGTTGTA is higher in “PBM E-score” value: -0.0935 for the first, -0.0898 for the second.

Compared with CGTTCCTC, AACCGAGG is lower in “PBM E-score” value: -0.0193 for the first, -0.282 for the second.

First: CACTGTTA
Second: CCTAACGC
The “PBM E-score” value of the first is lower: -0.00136 for the first, 0.0492 for the second.

Going from CATCAGTA to AGCTGAAT, the “PBM E-score” value falls from 0.0459 to -0.00032.

First: CATCATGA
Second: ACGACTCC
The “PBM E-score” value of the first is higher: -0.0218 for the first, -0.0831 for the second.

Going from AACCGCAG to ACCGCTGC, the “PBM E-score” value falls from -0.0821 to -0.146.

First: CATTGTAA
Second: CCGGTAAA
The “PBM E-score” value of the first is lower: -0.00312 for the first, 0.0195 for the second.

First: AAGAGAGC
Second: CAGCACTG
The “PBM E-score” value of the first is lower: -0.282 for the first, -0.141 for the second.

First: GGCAAGGA
Second: CACTGTAG
The “PBM E-score” value of the first is lower: -0.0598 for the first, 0.139 for the second.

Compared with ATAGATAA, ACTCGACC is lower in “PBM E-score” value: 0.125 for the first, -0.0251 for the second.

Going from AGCCATCG to GACTGATC, the “PBM E-score” value falls from -0.0525 to -0.075.

First: AAGCCCGC
Second: ACGAGCCA
The “PBM E-score” value of the first is higher: 0.0106 for the first, -0.0145 for the second.

Going from GATTGACC to AGAGCGCC, the “PBM E-score” value rises from -0.149 to -0.0652.

First: AGTACCGA
Second: GCCACAAC
The “PBM E-score” value of the first is lower: -0.124 for the first, 0.123 for the second.

First: CCACAGGC
Second: CAGACCAG
The “PBM E-score” value of the first is lower: -0.368 for the first, 0.0044 for the second.

Compared with CCTGTGCA, AGACATTC is lower in “PBM E-score” value: -0.0992 for the first, -0.178 for the second.

Going from CCAAAGAA to GATTGACA, the “PBM E-score” value rises from 0.0277 to 0.207.

Compared with AGGGTCTG, AGTCTAAT is higher in “PBM E-score” value: -0.246 for the first, -0.031 for the second.

First: CCTATCGC
Second: ATACCTCG
The “PBM E-score” value of the first is lower: -0.142 for the first, 0.0669 for the second.

Going from AAGCGGGC to AATCGCGA, the “PBM E-score” value rises from -0.231 to 0.196.

First: CCGATCCG
Second: TATGTCAA
The “PBM E-score” value of the first is lower: -0.0335 for the first, 0.203 for the second.

First: AGACGGCA
Second: ATGGCGCC
The “PBM E-score” value of the first is higher: 0.0815 for the first, -0.00769 for the second.

Going from AAGTCGCA to CCATAAGC, the “PBM E-score” value falls from 0.152 to -0.113.

Compared with ATTTAGTC, GCCAACTA is lower in “PBM E-score” value: 0.18 for the first, -0.0964 for the second.

Compared with TGTCGTAA, CCATTCGC is lower in “PBM E-score” value: -0.0835 for the first, -0.149 for the second.

Compared with CCCGTGTC, CAGAGGAA is higher in “PBM E-score” value: -0.0991 for the first, -0.0211 for the second.

Compared with CGAAAAGC, GATTCCGC is higher in “PBM E-score” value: -0.143 for the first, 0.103 for the second.

First: CACGGTCG
Second: TCTAGGCA
The “PBM E-score” value of the first is higher: -0.184 for the first, -0.194 for the second.

First: CTGTCTAA
Second: TCCAAGCA
The “PBM E-score” value of the first is higher: 0.0936 for the first, -0.0443 for the second.

Compared with GCTGGTCC, AATATGTC is higher in “PBM E-score” value: -0.0276 for the first, 0.17 for the second.

First: CGCGAGGA
Second: ACTTGTAA
The “PBM E-score” value of the first is higher: 0.0256 for the first, -0.0105 for the second.

First: AAATAAGC
Second: CGGTACCG
The “PBM E-score” value of the first is higher: 0.242 for the first, 0.0814 for the second.

First: ATCGTAAC
Second: ACGGTGGG
The “PBM E-score” value of the first is higher: 0.138 for the first, 0.0296 for the second.

First: GGCTTTTA
Second: CATCGATA
The “PBM E-score” value of the first is lower: -0.163 for the first, 0.149 for the second.

First: GTGGGAAC
Second: GGCGCCAC
The “PBM E-score” value of the first is lower: -0.15 for the first, -0.0976 for the second.

Going from CAGCTTCC to CGCCGACG, the “PBM E-score” value falls from -0.0607 to -0.0938.

Going from ACACCCCC to ACGACTAA, the “PBM E-score” value rises from -0.257 to -0.00848.

Going from GCCAGCAA to GGCGGACC, the “PBM E-score” value falls from -0.131 to -0.229.

Compared with CCCGTTGA, CTAAACAC is higher in “PBM E-score” value: -0.131 for the first, 0.00997 for the second.

Compared with TGGATACA, AAAGTAAG is lower in “PBM E-score” value: 0.00725 for the first, 0.00657 for the second.

First: CATCGGGC
Second: GGCGGGAA
The “PBM E-score” value of the first is lower: -0.118 for the first, 0.0677 for the second.

Compared with CTCATCCC, ACGACTAT is higher in “PBM E-score” value: -0.095 for the first, -0.0492 for the second.

First: ACCGCCCT
Second: CAGATTGC
The “PBM E-score” value of the first is lower: -0.0409 for the first, 0.028 for the second.

Compared with AGGGATCG, CACCTCAG is higher in “PBM E-score” value: -0.207 for the first, -0.109 for the second.

Going from CGTGAGGC to CAAGGCCA, the “PBM E-score” value rises from -0.108 to 0.073.

Compared with TGACCAAA, AATAATCT is higher in “PBM E-score” value: 0.0091 for the first, 0.193 for the second.

Going from ATTAGGCG to ATGAACGA, the “PBM E-score” value falls from 0.211 to 0.111.

First: GGAACCTA
Second: CGCCTACG
The “PBM E-score” value of the first is higher: -0.0312 for the first, -0.188 for the second.

First: ACTGAATG
Second: CTTGCCAA
The “PBM E-score” value of the first is higher: 0.00334 for the first, -0.109 for the second.

First: TTCAGGAA
Second: AAAGACCA
The “PBM E-score” value of the first is higher: -0.019 for the first, -0.153 for the second.

First: CACCTCAA
Second: ATGACATC
The “PBM E-score” value of the first is lower: -0.0194 for the first, 0.232 for the second.

Going from CCCTAGGG to GAACCTCC, the “PBM E-score” value rises from -0.212 to -0.0846.

First: GGTGACGA
Second: CAGCTCCC
The “PBM E-score” value of the first is higher: 0.0258 for the first, -0.329 for the second.

Compared with AATATCTA, ATTAAACA is lower in “PBM E-score” value: 0.129 for the first, 0.0666 for the second.

First: ACTAGGCC
Second: TGACAACA
The “PBM E-score” value of the first is lower: -0.304 for the first, 0.162 for the second.

First: CACGCGAG
Second: GAGCAGAC
The “PBM E-score” value of the first is higher: 0.239 for the first, -0.243 for the second.

Going from AGTAAAGG to AGAGGTGG, the “PBM E-score” value falls from 0.0145 to -0.0604.

Compared with ACTCGCAT, CTTGGGGA is lower in “PBM E-score” value: 0.101 for the first, 0.0866 for the second.

Compared with CACATGCC, CCGTAAGG is lower in “PBM E-score” value: -0.0297 for the first, -0.294 for the second.

Compared with GTTAGATA, CAGTTCAG is lower in “PBM E-score” value: 0.0557 for the first, 0.0134 for the second.

Compared with AAAATTAC, ATGGCCAC is lower in “PBM E-score” value: 0.072 for the first, -0.21 for the second.

Going from TAAGAGGA to ATGAAAAT, the “PBM E-score” value falls from 0.138 to 0.0649.

First: GTTGAAAA
Second: AAGGCGAG
The “PBM E-score” value of the first is higher: -0.0062 for the first, -0.149 for the second.

First: CCGTCTAA
Second: CTGTAAGA
The “PBM E-score” value of the first is lower: -0.00091 for the first, 0.0798 for the second.

First: AACAAACC
Second: AACCGACT
The “PBM E-score” value of the first is higher: 0.243 for the first, -0.0876 for the second.

First: CGACTGCA
Second: ACAGATGC
The “PBM E-score” value of the first is higher: 0.0813 for the first, -0.123 for the second.

Compared with AGTGACTA, TCAGTAAA is higher in “PBM E-score” value: 0.063 for the first, 0.0937 for the second.

First: CCTCATAC
Second: AGGCCATG
The “PBM E-score” value of the first is lower: -0.0901 for the first, 0.0395 for the second.
